Measured values: PMC10189953
Numbering of substitutions follows the chain as printed. These are yes or no findings as the source states them, for the method shown. Some results given as binding are weak or reduced against the parent protein; the word gives no strength. Blank lines part the entries; values can stand above or below the binder they belong to.

Assays:
[1] = molecular target: T1, Mus81 (S. cerevisiae, full-length, subunit of Mus81-Mms4) (S. cerevisiae) (UniProt Q04149); assay: co-purification by column chromatography; S. cerevisiae Mus81-Mms4 from bacterial lysate carried through Q-sepharose, SP-sepharose, His-Select nickel affinity gel, hydroxyapatite and MonoS; final pool checked on SDS-PAGE
T1 sequence: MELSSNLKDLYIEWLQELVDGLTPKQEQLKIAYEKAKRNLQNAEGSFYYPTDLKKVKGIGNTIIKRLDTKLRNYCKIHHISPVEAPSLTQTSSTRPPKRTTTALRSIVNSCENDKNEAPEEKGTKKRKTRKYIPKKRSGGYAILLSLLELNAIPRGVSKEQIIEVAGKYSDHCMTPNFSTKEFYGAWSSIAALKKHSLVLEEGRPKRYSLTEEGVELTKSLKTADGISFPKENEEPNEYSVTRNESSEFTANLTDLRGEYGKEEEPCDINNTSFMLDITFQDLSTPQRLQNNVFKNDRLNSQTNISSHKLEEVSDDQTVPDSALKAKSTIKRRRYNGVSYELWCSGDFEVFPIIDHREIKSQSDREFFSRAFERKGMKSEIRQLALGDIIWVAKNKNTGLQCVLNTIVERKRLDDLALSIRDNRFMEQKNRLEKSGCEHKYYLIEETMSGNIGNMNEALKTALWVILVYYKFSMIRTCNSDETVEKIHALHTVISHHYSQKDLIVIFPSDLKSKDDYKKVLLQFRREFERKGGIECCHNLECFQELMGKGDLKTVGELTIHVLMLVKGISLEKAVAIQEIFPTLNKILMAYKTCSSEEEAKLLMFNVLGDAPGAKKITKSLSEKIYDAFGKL

[2] = molecular target: T2, MUS81(246-551) nuclease-dead mutant (D338A, D339A) (human) (UniProt Q96NY9); assay: co-purification by column chromatography; human MUS81 complexes from bacterial lysate carried through Q-sepharose, SP-sepharose, His-Select nickel affinity gel and heparin; final pools checked on SDS-PAGE
T2 sequence: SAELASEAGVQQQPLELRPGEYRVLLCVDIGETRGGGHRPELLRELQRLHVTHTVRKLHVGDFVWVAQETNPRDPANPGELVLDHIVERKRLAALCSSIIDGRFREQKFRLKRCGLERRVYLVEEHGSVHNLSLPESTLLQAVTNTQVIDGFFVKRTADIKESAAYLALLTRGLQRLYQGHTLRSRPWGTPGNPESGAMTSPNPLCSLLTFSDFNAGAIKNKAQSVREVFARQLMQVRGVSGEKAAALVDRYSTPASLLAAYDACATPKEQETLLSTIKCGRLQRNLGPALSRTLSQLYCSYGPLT

[3] = molecular target: T3, MUS81(246-551), wild type, of the truncated complex MUS81(246-551)-EME1(178-570) (human) (UniProt Q96NY9); assay: as above
T3 sequence: T2 sequence with A93D, A94D

[4] = molecular target: T4, MUS81 (human, full-length, subunit of MUS81-EME1 and MUS81-EME2) (human) (UniProt Q96NY9); assay: as above
T4 sequence: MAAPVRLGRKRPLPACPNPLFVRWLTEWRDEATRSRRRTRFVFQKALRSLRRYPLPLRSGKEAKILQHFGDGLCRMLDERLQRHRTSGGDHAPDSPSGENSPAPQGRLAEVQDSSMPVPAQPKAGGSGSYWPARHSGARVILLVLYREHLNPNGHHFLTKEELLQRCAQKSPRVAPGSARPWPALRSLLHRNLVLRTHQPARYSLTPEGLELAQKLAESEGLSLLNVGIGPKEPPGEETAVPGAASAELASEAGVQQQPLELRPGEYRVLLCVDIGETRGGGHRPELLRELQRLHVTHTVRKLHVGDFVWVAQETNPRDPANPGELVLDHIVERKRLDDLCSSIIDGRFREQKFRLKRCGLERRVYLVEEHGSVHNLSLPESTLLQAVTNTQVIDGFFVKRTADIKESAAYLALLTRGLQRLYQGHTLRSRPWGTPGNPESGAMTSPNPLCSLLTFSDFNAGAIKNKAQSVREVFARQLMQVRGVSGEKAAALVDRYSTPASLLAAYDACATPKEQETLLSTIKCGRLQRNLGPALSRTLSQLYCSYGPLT

binding [1]: binds
B1: Mms4 (S. cerevisiae, full-length, subunit of Mus81-Mms4) (protein, UniProt P38257 1-691)
chain: MSQIVDFVEDKDSRNDASIQIIDGPSNVEIIALSESMDQDECKRAHVSSAEMIPSSPQRKSVSNDVENVDLNKSIELSAPFFQDISISKLDDFSTTVNSIIDSSLRNENNAKGNAKKLLDDLISDEWSADLESSGKKHNKSQYNLRDIAEKWGVQSLKNPEPIAVDCEYKTQGIGKTNSDISDSPKSQIGAADILFDFPLSPVKHENPTEEKHNSIANENSSPDNSLKPAGKQNHGEDGTSMAKRVYNKGEDEQEHLPKGKKRTIALSRTLINSTKLPDTVELNLSKFLDSSDSITTDVLSTPAKGSNIVRTGSQPIFSNANCFQEAKRSKTLTAEDPKCTKNTAREVSQLENYIAYGQYYTREDSKNKIRHLLKENKNAFKRVNQIYRDNIKARSQMIIEFSPSLLQLFKKGDSDLQQQLAPAVVQSSYNDSMPLLRFLRKCDSIYDFSNDFYYPCDPKIVEENVLILYYDAQEFFEQYTSQKKELYRKIRFFSKNGKHVILILSDINKLKRAIFQLENEKYKARVEQRLSGTEEALRPRSKKSSQVGKLGIKKFDLEQRLRFIDREWHVKIHTVNSHMEFINSLPNLVSLIGKQRMDPAIRYMKYAHLNVKSAQDSTETLKKTFHQIGRMPEMKANNVVSLYPSFQSLLEDIEKGRLQSDNEGKYLMTEAVEKRLYKLFTCTDPNDTIE

binding [4]: binds
B3: EME1 (human, full-length, subunit of MUS81-EME1) (protein, UniProt Q96AY2 1-570)
chain: MALKKSSPSLDSGDSDSEELPTFAFLKKEPSSTKRRQPEREEKIVVVDISDCEASCPPAPELFSPPVPEIAETVTQTQPVRLLSSESEDEEEFIPLAQRLTCKFLTHKQLSPEDSSSPVKSVLDHQNNEGASCDWKKPFPKIPEVPLHDTPERSAADNKDLILDPCCQLPAYLSTCPGQSSSLAVTKTNSDILPPQKKTKPSQKVQGRGSHGCRQQRQARQKESTLRRQERKNAALVTRMKAQRPEECLKHIIVVLDPVLLQMEGGGQLLGALQTMECRCVIEAQAVPCSVTWRRRAGPSEDREDWVEEPTVLVLLRAEAFVSMIDNGKQGSLDSTMKGKETLQGFVTDITAKTAGKALSLVIVDQEKCFSAQNPPRRGKQGANKQTKKQQQRQPEASIGSMVSRVDAEEALVDLQLHTEAQAQIVQSWKELADFTCAFTKAVAEAPFKKLRDETTFSFCLESDWAGGVKVDLAGRGLALVWRRQIQQLNRVSLEMASAVVNAYPSPQLLVQAYQQCFSDKERQNLLADIQVRRGEGVTSTSRRIGPELSRRIYLQMTTLQPHLSLDSAD

Continued, binder first:

B2: EME1(178-570) of the truncated complex MUS81(246-551)-EME1(178-570) (domain or fragment, UniProt Q96AY2 178-570)
chain: GQSSSLAVTKTNSDILPPQKKTKPSQKVQGRGSHGCRQQRQARQKESTLRRQERKNAALVTRMKAQRPEECLKHIIVVLDPVLLQMEGGGQLLGALQTMECRCVIEAQAVPCSVTWRRRAGPSEDREDWVEEPTVLVLLRAEAFVSMIDNGKQGSLDSTMKGKETLQGFVTDITAKTAGKALSLVIVDQEKCFSAQNPPRRGKQGANKQTKKQQQRQPEASIGSMVSRVDAEEALVDLQLHTEAQAQIVQSWKELADFTCAFTKAVAEAPFKKLRDETTFSFCLESDWAGGVKVDLAGRGLALVWRRQIQQLNRVSLEMASAVVNAYPSPQLLVQAYQQCFSDKERQNLLADIQVRRGEGVTSTSRRIGPELSRRIYLQMTTLQPHLSLDSAD
binding [2]: binds | binding [3]: binds

B4: EME2 (human, full-length, subunit of MUS81-EME2) (protein, UniProt A4GXA9 1-379)
chain: MARVGPGRAGVSCQGRGRGRGGSGQRRPPTWEISDSDAEDSAGSEAAARARDPAGERRAAAEALRLLRPEQVLKRLAVCVDTAILEDAGADVLMEALEALGCECRIEPQRPARSLRWTRASPDPCPRSLPPEVWAAGEQELLLLLEPEEFLQGVATLTQISGPTHWVPWISPETTARPHLAVIGLDAYLWSRQHVSRGTQQPESPKVAGAEVAVSWPEVEEALVLLQLWANLDVLLVASWQELSRHVCAVTKALAQYPLKQYRESQAFSFCTAGRWAAGEPVARDGAGLQAAWRRQIRQFSRVSPAVADAVVTAFPSPRLLQQALEACSTERERMGLLADLPVPPSEGGRPRRVGPDLSRRICLFLTTANPDLLLDLGS
binding [4]: binds
